Laboratory results taken from paper PMC5897347.
Results are given in words; binding and its absence hold for the method and conditions named. Binding seen in cells or lysates may run through a third protein. Here binding means that the protein was enriched with, or labelled near, the bait; the list need not be complete.

By UniProt entry, the sequences of proteins in these tests, tags left out.
UniProt Q99684: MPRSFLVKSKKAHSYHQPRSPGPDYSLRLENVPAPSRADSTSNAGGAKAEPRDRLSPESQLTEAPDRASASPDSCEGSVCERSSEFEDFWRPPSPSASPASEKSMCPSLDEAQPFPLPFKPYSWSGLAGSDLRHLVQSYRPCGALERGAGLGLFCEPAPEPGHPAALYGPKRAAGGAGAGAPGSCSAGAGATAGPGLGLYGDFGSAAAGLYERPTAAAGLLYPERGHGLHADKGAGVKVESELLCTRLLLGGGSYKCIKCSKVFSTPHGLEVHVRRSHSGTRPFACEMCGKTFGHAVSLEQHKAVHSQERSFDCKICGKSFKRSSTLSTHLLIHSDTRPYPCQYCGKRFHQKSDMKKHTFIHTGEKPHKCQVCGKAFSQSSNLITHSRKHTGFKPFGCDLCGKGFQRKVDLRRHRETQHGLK
UniProt P78527: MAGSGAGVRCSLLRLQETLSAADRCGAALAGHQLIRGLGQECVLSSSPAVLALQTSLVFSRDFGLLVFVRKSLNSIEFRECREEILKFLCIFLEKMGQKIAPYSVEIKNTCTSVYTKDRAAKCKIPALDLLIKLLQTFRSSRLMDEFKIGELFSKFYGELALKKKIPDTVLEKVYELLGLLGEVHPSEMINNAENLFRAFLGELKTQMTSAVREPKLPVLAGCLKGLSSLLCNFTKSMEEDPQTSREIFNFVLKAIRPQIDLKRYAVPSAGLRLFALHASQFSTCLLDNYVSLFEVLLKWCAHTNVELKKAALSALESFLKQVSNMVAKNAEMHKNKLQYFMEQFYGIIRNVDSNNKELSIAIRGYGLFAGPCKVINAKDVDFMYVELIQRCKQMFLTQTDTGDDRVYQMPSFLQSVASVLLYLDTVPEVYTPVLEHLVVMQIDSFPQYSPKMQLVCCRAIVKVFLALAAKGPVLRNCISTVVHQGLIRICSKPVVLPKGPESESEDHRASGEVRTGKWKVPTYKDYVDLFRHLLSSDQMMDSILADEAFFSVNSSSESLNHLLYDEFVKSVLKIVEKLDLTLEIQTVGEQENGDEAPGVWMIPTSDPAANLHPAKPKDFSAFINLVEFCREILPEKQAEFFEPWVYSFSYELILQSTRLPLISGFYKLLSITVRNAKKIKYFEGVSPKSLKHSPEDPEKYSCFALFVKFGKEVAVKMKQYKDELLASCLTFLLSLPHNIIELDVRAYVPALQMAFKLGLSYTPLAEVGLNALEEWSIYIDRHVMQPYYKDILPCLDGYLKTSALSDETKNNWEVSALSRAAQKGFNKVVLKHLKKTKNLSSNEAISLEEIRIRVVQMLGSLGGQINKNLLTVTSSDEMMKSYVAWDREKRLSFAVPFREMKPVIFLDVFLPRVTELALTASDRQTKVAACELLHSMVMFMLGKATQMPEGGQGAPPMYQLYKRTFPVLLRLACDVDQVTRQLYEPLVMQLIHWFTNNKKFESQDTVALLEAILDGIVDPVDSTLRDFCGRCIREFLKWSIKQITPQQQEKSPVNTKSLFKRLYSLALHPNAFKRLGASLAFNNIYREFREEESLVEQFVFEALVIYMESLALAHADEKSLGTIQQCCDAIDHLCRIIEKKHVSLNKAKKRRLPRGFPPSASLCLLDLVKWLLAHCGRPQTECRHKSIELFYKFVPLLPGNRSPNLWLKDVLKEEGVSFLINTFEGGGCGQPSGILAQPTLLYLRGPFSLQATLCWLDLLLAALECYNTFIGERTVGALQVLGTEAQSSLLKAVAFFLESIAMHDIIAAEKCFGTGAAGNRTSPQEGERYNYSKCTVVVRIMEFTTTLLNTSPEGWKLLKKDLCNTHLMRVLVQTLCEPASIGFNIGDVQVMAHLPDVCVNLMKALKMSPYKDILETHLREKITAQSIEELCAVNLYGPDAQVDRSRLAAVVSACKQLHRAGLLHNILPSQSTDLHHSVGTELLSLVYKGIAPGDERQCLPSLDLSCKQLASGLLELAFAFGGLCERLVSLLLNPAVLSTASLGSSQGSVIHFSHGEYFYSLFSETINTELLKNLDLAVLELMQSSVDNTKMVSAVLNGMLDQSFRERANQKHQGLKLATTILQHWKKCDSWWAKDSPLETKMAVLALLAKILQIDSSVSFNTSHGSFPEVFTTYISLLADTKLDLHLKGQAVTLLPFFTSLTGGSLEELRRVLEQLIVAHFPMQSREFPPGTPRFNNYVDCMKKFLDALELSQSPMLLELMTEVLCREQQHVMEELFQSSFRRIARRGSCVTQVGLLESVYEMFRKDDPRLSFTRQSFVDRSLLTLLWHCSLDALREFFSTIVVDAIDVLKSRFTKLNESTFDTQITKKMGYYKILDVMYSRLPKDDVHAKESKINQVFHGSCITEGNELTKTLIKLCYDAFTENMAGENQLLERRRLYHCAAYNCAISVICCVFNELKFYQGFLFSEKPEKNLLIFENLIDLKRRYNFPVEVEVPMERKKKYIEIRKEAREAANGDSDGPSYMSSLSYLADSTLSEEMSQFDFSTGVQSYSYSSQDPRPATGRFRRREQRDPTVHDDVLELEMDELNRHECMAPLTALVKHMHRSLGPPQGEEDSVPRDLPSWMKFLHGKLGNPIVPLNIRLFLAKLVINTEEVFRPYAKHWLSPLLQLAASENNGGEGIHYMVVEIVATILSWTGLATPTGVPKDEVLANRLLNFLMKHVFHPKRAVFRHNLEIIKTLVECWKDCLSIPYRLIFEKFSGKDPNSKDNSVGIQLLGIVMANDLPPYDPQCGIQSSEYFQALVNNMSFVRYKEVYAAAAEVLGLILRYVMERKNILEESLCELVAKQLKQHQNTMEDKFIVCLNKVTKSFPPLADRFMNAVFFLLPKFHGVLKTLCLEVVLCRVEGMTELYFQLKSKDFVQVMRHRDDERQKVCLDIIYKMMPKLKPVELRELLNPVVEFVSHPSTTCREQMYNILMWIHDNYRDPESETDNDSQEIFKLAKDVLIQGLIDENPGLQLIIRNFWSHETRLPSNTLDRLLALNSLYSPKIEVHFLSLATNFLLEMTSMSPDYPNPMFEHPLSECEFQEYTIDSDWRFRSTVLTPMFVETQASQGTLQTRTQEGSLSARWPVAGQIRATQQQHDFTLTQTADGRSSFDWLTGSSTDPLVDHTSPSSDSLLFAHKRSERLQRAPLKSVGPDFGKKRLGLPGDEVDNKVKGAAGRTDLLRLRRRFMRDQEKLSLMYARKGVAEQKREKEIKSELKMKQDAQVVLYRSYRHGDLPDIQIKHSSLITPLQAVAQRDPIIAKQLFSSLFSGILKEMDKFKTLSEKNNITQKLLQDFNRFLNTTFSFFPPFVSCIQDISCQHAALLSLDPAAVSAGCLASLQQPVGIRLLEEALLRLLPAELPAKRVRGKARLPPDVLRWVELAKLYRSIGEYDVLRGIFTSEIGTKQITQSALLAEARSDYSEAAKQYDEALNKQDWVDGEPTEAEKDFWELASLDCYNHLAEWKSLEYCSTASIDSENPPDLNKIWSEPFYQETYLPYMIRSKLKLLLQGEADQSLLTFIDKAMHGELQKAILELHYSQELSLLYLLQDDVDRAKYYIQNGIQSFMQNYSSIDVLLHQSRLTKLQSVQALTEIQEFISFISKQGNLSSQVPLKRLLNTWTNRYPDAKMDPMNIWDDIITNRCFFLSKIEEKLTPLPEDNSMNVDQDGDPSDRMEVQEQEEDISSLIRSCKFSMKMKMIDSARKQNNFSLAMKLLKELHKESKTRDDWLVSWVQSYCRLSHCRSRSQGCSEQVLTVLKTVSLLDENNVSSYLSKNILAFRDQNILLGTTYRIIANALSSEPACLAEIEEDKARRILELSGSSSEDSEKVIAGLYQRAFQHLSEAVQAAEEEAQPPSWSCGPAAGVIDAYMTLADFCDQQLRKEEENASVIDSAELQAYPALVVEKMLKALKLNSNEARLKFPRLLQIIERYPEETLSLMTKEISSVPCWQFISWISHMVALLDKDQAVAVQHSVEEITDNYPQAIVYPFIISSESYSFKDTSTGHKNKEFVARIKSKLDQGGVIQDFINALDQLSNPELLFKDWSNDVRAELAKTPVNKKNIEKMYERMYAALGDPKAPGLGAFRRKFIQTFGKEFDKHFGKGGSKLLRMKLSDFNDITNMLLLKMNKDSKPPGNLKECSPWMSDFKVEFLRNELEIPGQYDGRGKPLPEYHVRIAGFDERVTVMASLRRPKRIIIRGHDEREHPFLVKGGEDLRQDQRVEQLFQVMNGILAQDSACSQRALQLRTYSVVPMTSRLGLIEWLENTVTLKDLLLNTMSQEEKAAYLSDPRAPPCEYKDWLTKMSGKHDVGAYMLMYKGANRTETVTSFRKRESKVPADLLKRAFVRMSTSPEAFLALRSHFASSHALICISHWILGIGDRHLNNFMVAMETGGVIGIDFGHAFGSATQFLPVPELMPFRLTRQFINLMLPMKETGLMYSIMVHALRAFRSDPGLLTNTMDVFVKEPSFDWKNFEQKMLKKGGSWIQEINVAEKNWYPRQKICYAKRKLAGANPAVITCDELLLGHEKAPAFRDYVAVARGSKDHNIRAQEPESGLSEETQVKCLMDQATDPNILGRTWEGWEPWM
UniProt Q9UKL0: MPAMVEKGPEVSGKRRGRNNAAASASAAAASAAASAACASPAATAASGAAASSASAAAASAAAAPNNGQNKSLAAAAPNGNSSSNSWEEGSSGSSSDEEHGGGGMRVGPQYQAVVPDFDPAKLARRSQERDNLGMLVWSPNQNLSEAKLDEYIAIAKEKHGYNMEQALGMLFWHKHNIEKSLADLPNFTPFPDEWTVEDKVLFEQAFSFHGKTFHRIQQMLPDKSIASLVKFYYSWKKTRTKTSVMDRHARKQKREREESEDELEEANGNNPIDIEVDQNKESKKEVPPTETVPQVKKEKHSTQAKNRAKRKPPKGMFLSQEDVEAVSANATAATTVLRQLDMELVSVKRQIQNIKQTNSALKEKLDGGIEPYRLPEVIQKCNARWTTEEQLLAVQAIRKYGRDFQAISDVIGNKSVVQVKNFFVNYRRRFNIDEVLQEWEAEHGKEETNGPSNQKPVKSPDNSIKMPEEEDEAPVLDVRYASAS
UniProt Q92769: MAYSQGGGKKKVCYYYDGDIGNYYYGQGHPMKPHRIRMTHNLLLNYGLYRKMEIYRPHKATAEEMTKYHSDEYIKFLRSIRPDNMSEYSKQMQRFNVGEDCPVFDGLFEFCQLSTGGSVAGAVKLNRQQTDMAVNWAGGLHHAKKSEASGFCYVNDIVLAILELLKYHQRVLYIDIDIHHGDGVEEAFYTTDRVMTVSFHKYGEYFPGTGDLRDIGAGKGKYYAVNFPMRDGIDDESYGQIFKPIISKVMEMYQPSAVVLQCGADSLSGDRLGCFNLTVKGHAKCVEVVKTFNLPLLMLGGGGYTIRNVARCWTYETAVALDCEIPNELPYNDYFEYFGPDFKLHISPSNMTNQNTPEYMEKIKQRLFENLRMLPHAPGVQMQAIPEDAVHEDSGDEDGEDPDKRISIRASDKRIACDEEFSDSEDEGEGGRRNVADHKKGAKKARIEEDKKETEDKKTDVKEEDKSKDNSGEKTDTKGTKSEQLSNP
UniProt Q99873: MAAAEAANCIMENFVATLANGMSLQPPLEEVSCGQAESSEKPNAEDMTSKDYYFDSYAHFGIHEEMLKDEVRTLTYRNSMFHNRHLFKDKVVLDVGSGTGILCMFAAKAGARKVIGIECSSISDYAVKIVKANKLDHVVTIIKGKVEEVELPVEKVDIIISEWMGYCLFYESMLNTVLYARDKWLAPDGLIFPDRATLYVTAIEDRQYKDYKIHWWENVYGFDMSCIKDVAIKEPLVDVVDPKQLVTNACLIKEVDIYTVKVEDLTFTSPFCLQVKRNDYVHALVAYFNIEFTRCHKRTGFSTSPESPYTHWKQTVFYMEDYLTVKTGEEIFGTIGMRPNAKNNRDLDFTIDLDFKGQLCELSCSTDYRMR
UniProt Q13547: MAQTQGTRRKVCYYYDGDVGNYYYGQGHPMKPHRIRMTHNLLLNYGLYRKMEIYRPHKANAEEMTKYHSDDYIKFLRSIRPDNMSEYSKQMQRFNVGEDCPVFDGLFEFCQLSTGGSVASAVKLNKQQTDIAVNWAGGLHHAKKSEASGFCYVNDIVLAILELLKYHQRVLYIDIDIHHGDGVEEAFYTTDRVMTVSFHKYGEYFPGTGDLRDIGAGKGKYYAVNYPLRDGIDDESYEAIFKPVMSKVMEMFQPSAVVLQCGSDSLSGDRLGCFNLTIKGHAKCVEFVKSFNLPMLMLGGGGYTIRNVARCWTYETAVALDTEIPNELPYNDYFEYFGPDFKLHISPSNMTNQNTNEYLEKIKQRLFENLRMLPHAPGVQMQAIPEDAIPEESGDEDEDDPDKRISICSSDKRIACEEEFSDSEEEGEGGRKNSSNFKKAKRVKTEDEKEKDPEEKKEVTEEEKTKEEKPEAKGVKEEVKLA

Target: GFI1-Flag fusion protein (full length GFI1) (UniProt Q99684)
Assay: affinity purification with mass spectrometry; GFI1-Flag immunoprecipitated (M2 anti-FLAG, agarose) from 293T cells; co-precipitated proteins run on a polyacrylamide gel, in-gel trypsin digestion, LC-MS/MS; scored against CRAPome controls (SAINTexpress)

Row | Substance | binding
1 | RAD50 (from UniProt Q92878 1-1312) | binds
2 | DNA-PK (from UniProt P78527 1-4128) (enzyme) | binds
3 | CoRest1 (from UniProt Q9UKL0 1-485) | binds
4 | HDAC2 (from UniProt Q92769 1-488) (enzyme) | binds
5 | CoRest3 (from UniProt Q9P2K3 1-495) | binds
6 | Protein arginine methyltransferase 1 (PRMT1) (from UniProt Q99873 1-371) (enzyme) | binds
7 | HDAC1 (from UniProt Q13547 1-482) (enzyme) | binds
